According to publication PMC9456107, “DNA Motifs and an Accessory CRISPR Factor Determine Cas1 Binding and Integration Activity in Sulfolobus islandicus”:
No constants are given. Whether binding was seen depends on the method and setting. For some assays here: Binding calls can cover weak binding; strength is not graded here. Tags and fused reporters may be left off the sequences shown. Values belong to the molecule of their own block, whether it stands above or below them.

What was measured:
[1] = target: T1, Cas1 protein with C-terminal His tag (S. islandicus REY15A) (UniProt F0NGP4); assay: native gel or EMSA; EMSA with the wildtype leader-proximal probe: 1.2 μM Cas1 with increasing amounts of Csa3a (0.6, 1.2 and 2.4 μM); super shifts and a well shift; both purified
T1 sequence: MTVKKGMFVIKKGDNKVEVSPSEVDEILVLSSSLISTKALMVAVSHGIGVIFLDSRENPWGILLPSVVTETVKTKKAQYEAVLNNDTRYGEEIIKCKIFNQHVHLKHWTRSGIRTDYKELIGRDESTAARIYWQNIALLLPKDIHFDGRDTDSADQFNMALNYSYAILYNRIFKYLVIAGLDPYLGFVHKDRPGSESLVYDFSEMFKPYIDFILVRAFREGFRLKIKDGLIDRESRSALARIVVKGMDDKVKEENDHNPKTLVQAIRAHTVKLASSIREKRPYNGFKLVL

[2] = target: T1, Cas1 protein with C-terminal His tag (S. islandicus REY15A); assay: cross-linking; 10 μg each of purified Csa3a and Cas1 in 20 mM HEPES-NaOH pH 7.6, 500 mM NaCl, 5% glycerol, 20 min at 40 °C; 1 mM BS3, room temperature 1 h; trypsin digest, LC-MS, XLinkX; both purified
[3] = target: His-tagged Csa3a (S. islandicus REY15A); assay: pull-down; His-tag pull-down: equal amounts of purified GST-Cas1 or GST and Csa3a-His mixed with Ni-NTA agarose beads, 1 h at 4 °C; wash 20 mM HEPES-NaOH pH 7.6, 500 mM NaCl, 20 mM imidazole; elution 500 mM imidazole; SDS-PAGE, Coomassie staining; both purified
[4] = target: His-tagged Csa3a (S. islandicus REY15A); assay: native gel or EMSA; EMSA with 5'-end HEX-labeled leader-distal motif dsDNA (P2): Csa3a with increasing amounts of Cas1; further retarded band; both purified
[5] = target: His-tagged Csa3a (S. islandicus REY15A); assay: condition: only with the leader-proximal motif DNA (P1) added beside the leader-distal motif DNA (P2); native gel or EMSA; EMSA with P2, Csa3a and Cas1, with increasing amounts of 5'-end FAM-labeled leader-proximal motif ssDNA (P1) added as the competitor for Cas1 binding; both purified

- binding [1]: binds
- binding [2]: binds
Molecule: His-tagged Csa3a (S. islandicus REY15A)

- binding [3]: binds
B1: GST-tagged Cas1 (protein, UniProt F0NGP4 1-290)
chain: T1 sequence

- binding [4]: binds
- binding [5]: no binding
B2: Cas1 protein with C-terminal His tag (protein, UniProt F0NGP4 1-290)
chain: T1 sequence
